No constants are given. Whether binding was seen depends on the method and setting. In cells and extracts the contact can be indirect. Some results given as binding are weak or reduced against the parent protein; the word gives no strength.
Molecular target: Ybx1 (Y-box binding protein 1) (not stated (endogenous in cardiomyocytes; mouse or rat cardiomyocytes isolated)) (UniProt P62960)
Test: co-IP; cell lysates of cardiomyocytes (with circNfix knockdown or overexpression) immunoprecipitated with antibody against Ybx1, immunoblotted with anti-ubiquitin, anti-Ybx1 or anti-Nedd4l antibody

Chains of the proteins cited; added tags and fusions are not shown.
UniProt P62960: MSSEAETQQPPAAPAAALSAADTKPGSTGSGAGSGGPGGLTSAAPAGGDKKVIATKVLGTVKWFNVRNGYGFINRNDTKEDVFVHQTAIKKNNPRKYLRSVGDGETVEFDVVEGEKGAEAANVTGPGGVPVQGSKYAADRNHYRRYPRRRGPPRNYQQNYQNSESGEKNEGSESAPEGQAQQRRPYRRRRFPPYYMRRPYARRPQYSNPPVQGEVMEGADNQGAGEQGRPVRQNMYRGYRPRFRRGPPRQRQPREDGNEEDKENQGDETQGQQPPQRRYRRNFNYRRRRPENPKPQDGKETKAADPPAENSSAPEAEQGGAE
UniProt Q8CFI0: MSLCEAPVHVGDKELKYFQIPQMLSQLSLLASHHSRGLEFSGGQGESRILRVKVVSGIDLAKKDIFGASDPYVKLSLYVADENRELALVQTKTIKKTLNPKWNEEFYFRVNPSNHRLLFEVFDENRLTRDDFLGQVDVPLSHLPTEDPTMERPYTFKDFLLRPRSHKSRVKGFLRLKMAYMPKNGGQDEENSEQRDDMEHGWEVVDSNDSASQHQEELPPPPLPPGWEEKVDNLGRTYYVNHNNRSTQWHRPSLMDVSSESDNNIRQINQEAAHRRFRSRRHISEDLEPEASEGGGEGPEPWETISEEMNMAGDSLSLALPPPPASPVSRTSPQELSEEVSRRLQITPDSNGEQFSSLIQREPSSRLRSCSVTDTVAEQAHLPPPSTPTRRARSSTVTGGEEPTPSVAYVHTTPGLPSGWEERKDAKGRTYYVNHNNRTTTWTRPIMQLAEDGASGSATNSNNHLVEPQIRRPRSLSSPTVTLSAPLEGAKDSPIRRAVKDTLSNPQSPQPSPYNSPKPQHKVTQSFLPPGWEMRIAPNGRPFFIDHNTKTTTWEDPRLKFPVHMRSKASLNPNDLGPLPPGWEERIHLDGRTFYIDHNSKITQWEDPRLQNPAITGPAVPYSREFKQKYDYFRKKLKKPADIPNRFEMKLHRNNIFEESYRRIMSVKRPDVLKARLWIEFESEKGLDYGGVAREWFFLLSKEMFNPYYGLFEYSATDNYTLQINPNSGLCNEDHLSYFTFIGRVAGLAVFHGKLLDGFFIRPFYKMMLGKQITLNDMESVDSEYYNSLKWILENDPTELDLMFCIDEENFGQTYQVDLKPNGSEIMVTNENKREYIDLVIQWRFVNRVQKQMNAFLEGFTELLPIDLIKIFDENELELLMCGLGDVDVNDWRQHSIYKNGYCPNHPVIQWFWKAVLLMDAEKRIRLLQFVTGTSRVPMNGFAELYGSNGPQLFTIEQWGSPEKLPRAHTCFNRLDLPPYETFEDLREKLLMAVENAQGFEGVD

Nedd4l (an E3 ubiquitin ligase) (from UniProt Q8CFI0 1-1004) (enzyme)
binding: binds

— publication PMC6629176
